# From paper doi:10.1101/2021.06.10.447992
# T1: COA7 with a C-terminal Flag epitope, expressed in COA7 knockout HEK293T cells (human) (UniProt Q96BR5)
# T1 sequence: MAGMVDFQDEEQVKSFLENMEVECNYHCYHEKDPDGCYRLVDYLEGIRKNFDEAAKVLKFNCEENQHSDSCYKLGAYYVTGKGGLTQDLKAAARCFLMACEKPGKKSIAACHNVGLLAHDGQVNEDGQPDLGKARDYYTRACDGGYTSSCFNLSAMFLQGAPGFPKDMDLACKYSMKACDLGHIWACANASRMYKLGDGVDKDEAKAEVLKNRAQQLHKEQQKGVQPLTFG
# B1: CHCHD4 (protein, UniProt Q8N4Q1 1-142)
# chain: MSYCRQEGKDRIIFVTKEDHETPSSAELVADDPNDPYEEHGLILPNGNINWNCPCLGGMASGPCGEQFKSAFSCFHYSTEEIKGSDCVDQFRAMQECMQKYPDLYPQEDEDEEEEREKKPAEQAEETAPIEATATKEEEGSS
# B2: coproporphyrinogen oxidase (CPOX) (enzyme, UniProt P36551 111-454)
# chain: TSLGRPEEEEDELAHRCSSFMAPPVTDLGELRRRPGDMKTKMELLILETQAQVCQALAQVDGGANFSVDRWERKEGGGGISCVLQDGCVFEKAGVSISVVHGNLSEEAAKQMRSRGKVLKTKDGKLPFCAMGVSSVIHPKNPHAPTIHFNYRYFEVEEADGNKQWWFGGGCDLTPTYLNQEDAVHFHRTLKEACDQHGPDLYPKFKKWCDDYFFIAHRGERRGIGGIFFDDLDSPSKEEVFRFVQSCARAVVPSYIPLVKKHCDDSFTPQEKLWQQLRRGRYVEFNLLYDRGTKFGLFTPGSRIESILMSLPLTARWEYMHSPSENSKEAEILEVLRHPRDWVR
# B3: mitochondrial protease LONP1 (enzyme, UniProt P36776 68-959)
# chain: FWEASSRGGGAFSGGEDASEGGAEEGAGGAGGSAGAGEGPVITALTPMTIPDVFPHLPLIAITRNPVFPRFIKIIEVKNKKLVELLRRKVRLAQPYVGVFLKRDDSNESDVVESLDEIYHTGTFAQIHEMQDLGDKLRMIVMGHRRVHISRQLEVEPEEPEAENKHKPRRKSKRGKKEAEDELSARHPAELAMEPTPELPAEVLMVEVENVVHEDFQVTEEVKALTAEIVKTIRDIIALNPLYRESVLQMMQAGQRVVDNPIYLSDMGAALTGAESHELQDVLEETNIPKRLYKALSLLKKEFELSKLQQRLGREVEEKIKQTHRKYLLQEQLKIIKKELGLEKDDKDAIEEKFRERLKELVVPKHVMDVVDEELSKLGLLDNHSSEFNVTRNYLDWLTSIPWGKYSNENLDLARAQAVLEEDHYGMEDVKKRILEFIAVSQLRGSTQGKILCFYGPPGVGKTSIARSIARALNREYFRFSVGGMTDVAEIKGHRRTYVGAMPGKIIQCLKKTKTENPLILIDEVDKIGRGYQGDPSSALLELLDPEQNANFLDHYLDVPVDLSKVLFICTANVTDTIPEPLRDRMEMINVSGYVAQEKLAIAERYLVPQARALCGLDESKAKLSSDVLTLLIKQYCRESGVRNLQKQVEKVLRKSAYKIVSGEAESVEVTPENLQDFVGKPVFTVERMYDVTPPGVVMGLAWTAMGGSTLFVETSLRRPQDKDAKGDKDGSLEVTGQLGEVMKESARIAYTFARAFLMQHAPANDYLVTSHIHLHVPEGATPKDGPSAGCTIVTALLSLAMGRPVRQNLAMTGEVSLTGKILPVGGIKEKTIAAKRAGVTCIVLPAENKKDFYDLAAFITEGLEVHFVEHYREIFDIAFPDEQAEALAVER
# B4: RCN2 (protein, UniProt Q14257 23-317)
# chain: GKAEELHYPLGERRSDYDREALLGVQEDVDEYVKLGHEEQQKRLQAIIKKIDLDSDGFLTESELSSWIQMSFKHYAMQEAKQQFVEYDKNSDDTVTWDEYNIQMYDRVIDFDENTALDDAEEESFRKLHLKDKKRFEKANQDSGPGLSLEEFIAFEHPEEVDYMTEFVIQEALEEHDKNGDGFVSLEEFLGDYRWDPTANEDPEWILVEKDRFVNDYDKDNDGRLDPQELLPWVVPNNQGIAQEEALHLIDEMDLNGDKKLSEEEILENPDLFLTSEATDYGRQLHDDYFYHDEL
# Molecular target: T1, COA7 with a C-terminal Flag epitope, expressed in COA7 knockout HEK293T cells (human)
# Test: affinity purification with mass spectrometry
row,Binder,binding
1,B1,binds
2,B2,binds
3,B3,binds
4,B4,binds

# These are yes or no findings as the source states them, for the method shown. Binding seen in cells or lysates may run through a third protein. A yes stands for co-enrichment or nearness to the bait. Other partners may have been found. Tags and fused reporters may be left off the sequences shown.
